PubChem BioAssay AID1259254, NCATS, 2017

- Purpose: 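Genome-wide screen for genes that prevent DNA re-replication in cancer cells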 (primary screen)
- Cell system: human HCT116 colorectal cancer cells
- Knock-down reagent: single siRNA against human genes
- Duration: 3 days
- Read-out: 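Imaged Hoechst DNA stain sorts each cell into a cycle phase by DNA amount; per plate, G2 fraction set to 0% for non-targeting and 100% for GMNN siRNA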
- Scale: G2 robust z-score: higher = more G2 cells, more excess DNA replication
- Call rule: 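An siRNA counts as active if its G2 robust z-score lies at least 5 MADs above the screen median; here such calls match roughly 38% of GMNN control or more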
In all, the deposit lists about 59,000 reagents; shown is an unselected part. Over the whole deposit, about 1,550 (2.6%) got an active call. 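G2 share is only a proxy for re-replication; each gene was hit by three separate siRNAs, and active genes were retested.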 Unmarked entries are inactive. Further read-outs or replicates are left out here. Not stated in the record: the amount of reagent.

G2 robust z-score, by gene and reagent
POLR1C (GeneID 9533): SID160722437 1.75; SID160722438 0.874; SID160732198 -0.0692
KCTD6 (GeneID 200845): SID160760893 0.339; SID160760894 -0.663; SID160760895 0.16
TGFBR1 (GeneID 7046): SID160718001 0.612; SID160718002 0.529; SID160718003 0.483
GRB7 (GeneID 2886): SID160774066 -1.09; SID160774075 -1.17; SID160774084 -1.19
CALML6 (GeneID 163688): SID160760059 0.436; SID160760060 0.702; SID160760062 -1.06
ITGAD (GeneID 3681): SID160775977 -0.804; SID160775978 4.2; SID160775979 1.29
APOL5 (GeneID 80831): SID160750606 2.35; SID160750607 -0.376; SID160750609 1.33
NRDE2 (GeneID 55051): SID160742824 -0.914; SID160742825 -0.0418; SID160742826 -0.903
VWDE (GeneID 221806): SID160761761 -0.246; SID160761762 -0.0865; SID160761763 -0.52
POTEKP (GeneID 440915): SID160767886 3.53; SID160767887 10 (active); SID160767888 -0.861
TSPAN2 (GeneID 10100): SID160725385 0.596; SID160725389 -1.05; SID160732262 3.56
IRS4 (GeneID 8471): SID160720114 4.87; SID160720115 -0.0636; SID160720116 0.511
MTX3 (GeneID 345778): SID160733119 -0.52; SID160764876 -0.0991; SID160764877 0.501
SRSF6 (GeneID 6431): SID160716618 0.0622; SID160716619 1.47; SID160716620 -0.0567
ZNF792 (GeneID 126375): SID160756475 -0.588; SID160756476 3.58; SID160756477 0.792
ERBB3 (GeneID 2065): SID160761408 0.646; SID160761419 5.56 (active); SID160761428 -1.09

Entries listed so far whose gene name begins with C or c:
G2 robust z-score, by gene and reagent
CALML6 (GeneID 163688): SID160760059 0.436; SID160760060 0.702; SID160760062 -1.06

The listing continues:
G2 robust z-score, by gene and reagent
KLC2 (GeneID 64837): SID160748036 -0.731; SID160748037 0.662; SID160748038 -0.655
RB1CC1 (GeneID 9821): SID160723176 -1.26; SID160723177 -0.582; SID160723178 0.752
CLK3 (GeneID 1198): SID160744542 -1.13; SID160744551 -0.543; SID160744563 -0.844
ZRANB2 (GeneID 9406): SID160722138 -0.46; SID160722139 -0.198; SID160722140 -0.0604
SWI5 (GeneID 375757): SID160733167 -0.551; SID160765476 -0.145; SID160765477 0.014
CORO1B (GeneID 57175): SID160745757 6.49 (active); SID160745758 0.429; SID160745759 1.01
RPRD1B (GeneID 58490): SID160746832 -0.147; SID160746833 -0.431; SID160746834 1.54
TIFA (GeneID 92610): SID160754326 -0.693; SID160754327 -0.00517; SID160754328 0.351
SLC13A5 (GeneID 284111): SID160763175 3.78; SID160763176 1.81; SID160763177 0.134
NAP1L1 (GeneID 4673): SID160777771 -1.12; SID160777772 5.11 (active); SID160777773 -0.893
KLF4 (GeneID 9314): SID160721918 -0.526; SID160721919 0.95; SID160721920 0.431
PBX3 (GeneID 5090): SID160713874 0.313; SID160713875 0.0511; SID160713876 -0.00569
PCDHGA11 (GeneID 56105): SID160744776 -0.342; SID160744777 0.228; SID160744778 -0.903
